Here are results for 3 substances from PMC10326024.

By UniProt entry, the sequences of proteins in these tests, tags left out.
UniProt P24385: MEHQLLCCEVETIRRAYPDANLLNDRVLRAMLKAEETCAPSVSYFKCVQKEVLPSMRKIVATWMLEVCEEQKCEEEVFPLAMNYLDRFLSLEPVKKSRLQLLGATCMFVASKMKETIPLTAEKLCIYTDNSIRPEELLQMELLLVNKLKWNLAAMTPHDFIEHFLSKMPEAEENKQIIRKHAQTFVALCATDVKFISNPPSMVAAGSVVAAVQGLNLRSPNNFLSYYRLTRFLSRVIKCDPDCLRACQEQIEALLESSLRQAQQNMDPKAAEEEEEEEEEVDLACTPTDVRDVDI

Results are given in words; binding and its absence hold for the method and conditions named. For some of these results: In cells and extracts the contact can be indirect. Some results given as binding are weak or reduced against the parent protein; the word gives no strength. For some of these results: Tags and fused reporters may be left off the sequences shown.

For experiment [1], the target named is T1, MG53 expressed from pcDNA4/TO/myc-HisB (human) (UniProt Q6ZMU5).
T1 sequence: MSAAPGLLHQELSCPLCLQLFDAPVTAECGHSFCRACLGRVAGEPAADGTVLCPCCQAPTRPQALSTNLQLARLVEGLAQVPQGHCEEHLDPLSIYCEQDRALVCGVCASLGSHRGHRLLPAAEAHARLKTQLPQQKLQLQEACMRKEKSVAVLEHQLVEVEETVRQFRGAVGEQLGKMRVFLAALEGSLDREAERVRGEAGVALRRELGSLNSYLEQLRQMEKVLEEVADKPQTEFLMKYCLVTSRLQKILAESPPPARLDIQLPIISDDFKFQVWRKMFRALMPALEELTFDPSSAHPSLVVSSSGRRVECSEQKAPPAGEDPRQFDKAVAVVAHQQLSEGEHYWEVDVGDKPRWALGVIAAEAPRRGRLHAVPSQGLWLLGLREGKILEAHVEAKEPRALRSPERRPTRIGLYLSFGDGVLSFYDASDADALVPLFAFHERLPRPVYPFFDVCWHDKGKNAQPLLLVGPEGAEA
Nature of the experiment: co-IP; HEK293 cells, both proteins overexpressed; lysis buffer 30 mM HEPES pH 7.6, 100 mM NaCl, 0.5% Nonidet P-40.

In experiment [2] the target is T2, endogenous MG53 (human (endogenous in HCT116)) (UniProt Q6ZMU5).
T2 sequence: T1 sequence
As to the kind of experiment: co-IP; HCT116 cells, both proteins endogenous; lysis buffer 30 mM HEPES pH 7.6, 100 mM NaCl, 0.5% Nonidet P-40.

Experiment [3] addresses T3, MYC-tagged MG53 (TRIM72) (human) (UniProt Q6ZMU5).
T3 sequence: T1 sequence
Nature of the experiment: co-IP; AGS cells, MYC-tagged MG53 exogenously overexpressed, cyclin D1 endogenous; lysis buffer 30 mM HEPES pH 7.6, 100 mM NaCl, 0.5% Nonidet P-40.

In experiment [4] the target is T4, recombinant human MG53 (rhMG53) (human) (UniProt Q6ZMU5).
T4 sequence: T1 sequence
Nature of the experiment: co-IP; in vitro co-IP of recombinant human MG53 and recombinant human cyclin D1; both purified.

For “cyclin D1-FLAG (from UniProt P24385 1-295)”, the binding entry in experiment [1] is “binds”.
As for “endogenous cyclin D1 (from UniProt P24385 1-295)”, the binding entry in experiment [2] and in experiment [3] was “binds” in each case.
With “recombinant human cyclin D1 (rhCyclin D1) (from UniProt P24385 1-295)”, the binding entry in experiment [4] was “binds”.
